Literature values in US5348941A, “Stabilizers for fibroblast growth factors” (Merck & Co., Inc., priority 1992, dated 1994).

Details: affinity chromatography; cited from earlier work

In the case of “bFGF: basic fibroblast growth factor, molecular mass of about 16.3 kDa”, the “salt concentration required for elution from heparin” value is given as 1.6 M.
In the case of “aFGF: human acidic fibroblast growth factor, molecular mass of about 15.9 kDa”, the “salt concentration required for elution from heparin” value is given as 1.0 M.
